Screening data, single-dose tests

Results are given as percent effect. The controls that fix the scale are not given in the record; negative values are as filed. Compounds were drawn at random from those tested, without regard to their results. Two or more numbers in one place are separate tests of the same structure; such repeats can differ widely.

A: 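Phenotypic screen: M. tuberculosis growth, cholesterol and DPPC medium, 4 days; the read-out is not stated. Concentration: 50 µM. Direction is inferred from retests: higher values go with more growth inhibition. About 69,000 compounds were tested under these conditions; 0.54% (about 370) showed 50% or more at least once.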
B: 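Growth of Mycobacterium tuberculosis over 3 days (7H9 medium with glucose and tyloxapol); the read-out is not stated. Compounds at 50 µM. Direction is inferred from retests: higher values go with more growth inhibition. About 69,000 compounds were tested under these conditions; 1.1% (about 760) showed 50% or more at least once.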

With CCCc1ccc(N2CCN(Cc3nc4ccccc4n3C)CC2)cc1 the screen gave A: -13.95%; B: 34.89% & 35.02%. With CCS(=O)(=O)N1Cc2ccccc2CC1C(=O)OCc1cc(C)no1 (centres undefined) the screen gave A: 13.09%; B: 3.533%. CC(C)C[C@H](N)c1nnc(SCC(N)=O)o1.Cl gave A: -41.6%; B: -1.688% & -22.77%. With COc1cccc(C(=O)NCCCN2CCc3ccccc3C2)c1OC the screen gave A: -9.395%; B: -19.67%. For CCOc1ccccc1C(CC(=O)Nc1ccccc1)NC(C)=O (centres undefined) the result was A: -1.298%; B: -2.773%. Cc1nc(CN2CCOC(CNc3cccnn3)C2)oc1C (centres undefined) gave A: -4.618%; B: -32.6%.

COCCn1cnnc1C1CCCN(C(C)C)C1 (centres undefined) gave A: -44.01%; B: -16.47%. With Cc1nc(C(C)C)sc1C(=O)N1CCC(C(N)=O)CC1 the screen gave A: -6.613%; B: 5.218%. With COCCN1CCC(CNC(=O)C2(c3cccc(C)c3)CC2)C1 (centres undefined) the screen gave A: -2.09%; B: 15.53%. COc1cc(-c2nc(N)n[nH]2)cc(OC)c1OC gave A: -10.46%; B: -9.003%. For CC(C)COC(C)C(=O)N1CCN(S(C)(=O)=O)CC1 (centres undefined) the result was A: -29.74%; B: -13.59% & -4.83%. CCc1nnc(CSc2ccccn2)o1 gave A: 6.957%; B: 3.237%.

For Cn1ccnc1CN1CCC2(CC(=O)N(c3ccsc3)C2)C1.O=C(O)C(F)(F)F (centres undefined) the result was A: -3.666% & -13.5%; B: -12.51%. For Cc1nnc(CN(Cc2ccccc2Cl)C2CCCC2)o1 the result was A: 20.2%; B: 6.398% & -1.246%. CNc1nnc(CCn2nc(C)c(Br)c2C)s1 read A: -5.485%; B: 2.244% & 9.991%. CCN(C)C(=O)c1cc(-c2ccn(C(C)C)n2)n2ccccc12 gave A: 15.97%; B: 12.35% & 6.721%. With CC(C)(C)CNC(=O)c1ccc(C(=O)O)cn1 the screen gave A: -6.943%; B: -1.969% & -3.252%. CCC(=O)c1ccc(OCC(=O)NC(C)Cc2cc(C)n[nH]2)cc1 (centres undefined) read A: 1.407%; B: -2.37% & -7.048%.

For O=C(c1cnccn1)N1CCCC(Cc2ccccn2)C1 (centres undefined) the result was A: -13.68% & 0.004569%; B: -8.522%. CC1=Nc2c(c(=O)[nH]n2C2CCCC2)C(c2cccnc2)S1 (centres undefined) read A: -14.91% & 4.375%; B: -15.09% & -25.18%. With O=C(O)C(F)(F)F.[H][C@@]12CN(C(=O)CC)CCC[C@]1(C(=O)N(C)C)CN(c1ccccn1)C2 the screen gave A: -22.96%; B: -2.863%. With O=C(c1cc(-n2cccn2)ccc1Cl)N1CCCC(N2CCCC2)C1 (centres undefined) the screen gave A: 10.96%; B: 1.727%. Result for COCCn1nc(C(=O)N2CCN(C)CC2C)ccc1=O (centres undefined) was A: -6.767%; B: -13.74%. COCCCNC(=O)c1cn(C(C)C)cc2c(=O)[nH]nc1-2 gave A: -10.44%; B: 3.056%.

Result for CCc1c(C)sc2ncnc(N3CCN(C4CCOCC4)CC3)c12 was A: -10%; B: 14.8%. [H][C@@]12CCN(C[C@@H]1CN1CCCC1)[C@@H](CNC(=O)c1ccco1)C2 read A: -7.296%; B: -9.834% & -6.5%. For [H][C@@]12CCN(C(=O)c3cscn3)[C@@]1([H])CCN2c1ccccn1 the result was A: -4.807%; B: 17.37%. Result for O=C1CC(c2ccc3c(c2)OCO3)c2snc(C(=O)O)c2N1 (centres undefined) was A: 5.733%; B: 1.142%. Cc1ncsc1CN1CC(C)(C2CC2)CC1=O (centres undefined) read A: -1.201%; B: -28.53% & -2.59%. With CNC(=O)[C@@H]1C[C@@H](n2cc(-c3ccc(Cl)cc3)nn2)CN1 the screen gave A: 7.119%; B: -4.186% & -0.2462%.

O=C(Nc1cnn(CC(=O)N2CCCO2)c1)c1ccccc1 read A: -2.175%; B: -12.81%. For CN(Cc1nccs1)c1nc(-c2ccccn2)nc2c1CCNCC2 the result was A: -3.355%; B: 3.373% & 9.399%. Result for COCCN1C[C@@H](C)[C@@]2(COCCN(C(=O)c3cccs3)C2)C1.O=C(O)C(F)(F)F was A: -18.85%; B: -0.748% & 2.925%. Cc1nc(N(C)C)nc(C)c1NC(=O)c1ccccc1C(F)(F)F gave A: 5.935%; B: 3.962%. Result for CCCc1nnc(N2CCN(c3ccccc3Cl)CC2)o1 was A: 15.24% & 35.22%; B: 22.22%.

Repeated from the top, 3 entries:

| compound | A | B |
|---|---|---|
| `CCCc1ccc(N2CCN(Cc3nc4ccccc4n3C)CC2)cc1` | -13.95% | 34.89% & 35.02% |
| `CCS(=O)(=O)N1Cc2ccccc2CC1C(=O)OCc1cc(C)no1` (centres undefined) | 13.09% | 3.533% |
| `CC(C)C[C@H](N)c1nnc(SCC(N)=O)o1.Cl` | -41.6% | -1.688% & -22.77% |

Measurements from “University of Dundee, Small-Polar-MMV Screening Library” (2021), ChEMBL document CHEMBL3988442.